# Data as given in PubChem BioAssay AID493014 (National Center for Advancing Translational Sciences (NCATS), 2011).
# About 170 (0.05%) of roughly 340,000 compounds were called active. The shares of active, inactive and inconclusive entries below differ from those in the screen. The call rests on the fitted dose curve; in most records, active means well fitted inhibition curve with a large enough effect in the signal ratio, with a control signal flat (not every such curve was filed as active); inconclusive means small, poorly fitted or top-dose-only effect, or effect the other way, or a change in a side signal; inactive means flat fitted curve, though single readings scatter; the % refers to the signal ratio. Potencies beside an inconclusive call are fits to weak or partial responses and may not hold up.
# Experiment: qHTS Assay to Find Inhibitors of Chronic Active B-Cell Receptor Signaling;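 on activity change, negative = inhibition: plate controls were basal doxycycline-induced cells for no effect and cells given 10 µM MG132 for full effect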
# Conditions: ABC-DLBCL IkBa-CBG/CBR reporter, luminescence ratio (green luciferase fused to IkBa over red control in TMD8 lymphoma cells), 4 h; activity change, negative = inhibition: at 46.1 µM (top of the series)
# In short: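 TMD8 ABC-DLBCL cells carrying doxycycline-inducible green luciferase fused to IkappaBalpha plus unfused red luciferase were exposed to compounds (up to 46 uM) for 4 hrs at 37C. Activity came from the overlap-corrected green/red luminescence ratio.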
# Potency means the concentration at half of the fitted maximal effect.
SMILES,"activity change, negative = inhibition",Potency
COc1cc(C(C)=O)ccc1Oc1cc(NN2CCCCC2)c([N+](=O)[O-])cc1[N+](=O)[O-],inconclusive: 16.6%,–
COc1cccc(C(=O)CSc2nnnn2C)c1,–,"inconclusive: 35.5 µM [falling, partial curve, poor fit]"
COc1cc2sc3cc(NCCCN4CCOCC4)ccc3c(=O)c2cc1OC,inconclusive: -1.35%,–
CCCN(CCC)CCNC(=O)c1cc2c(-c3ccccc3F)nn(C)c2s1,inconclusive: -4.26%,–
Nc1c(C(=O)c2ccc(Br)cc2)oc2ccccc12,inconclusive: 0.67%,–
CCC(C)NC(=O)CC(NS(=O)(=O)c1ccc(C)cc1)c1ccc(OC)cc1 (stereo unspecified),inconclusive: 0.748%,–
COc1ccccc1NC(=O)c1sc2ncn(Cc3ccccc3C)c(=O)c2c1C,inactive: -2.58%,–
CCOc1ccc(C=NNc2ccc(S(=O)(=O)Nc3ccccc3C(=O)O)cc2[N+](=O)[O-])cc1,inconclusive: 0.0419%,–
C/C(=N\Nc1ncc(Cl)cc1Cl)c1ccc2c(c1)OCO2,inconclusive: -1.17%,–
COc1ccc(N/C=C2/Sc3ccccc3NC2=O)cc1,–,"inconclusive: 22.4 µM [falling, partial curve]"
COc1cccc(C(=O)Nc2nnc(-c3cccs3)o2)c1,–,"inconclusive: 35.5 µM [cytotoxic, single point]"
COc1cc2c(cc1NC(=O)COC(=O)CNC(=O)c1ccccc1)oc1ccccc12,inconclusive: 13.9%,–
COc1ccc2o/c(=N/NC(=S)Nc3ccccc3)c(C(N)=O)cc2c1,inconclusive: 0.709%,–
O=C(NCCN1CCOCC1)c1ccc(/C=C2\Sc3ccccc3N(Cc3ccc(F)cc3)C2=O)cc1,–,"inconclusive: 15.8 µM [falling, partial curve]"
COc1cc(N=Nc2ccccc2C(=O)O)ccc1O,–,"inconclusive: 11.2 µM [rising, partial curve, poor fit]"
c1ccc(CSCc2cn3ccccc3n2)cc1,inactive: -0.19%,–
FC(F)(F)c1cc(CCN2C(=S)NC[C@@H]2Cc2ccccc2)cc(C(F)(F)F)c1,inconclusive: 11.6%,–
Cc1ccc(S(=O)(=O)NNC(=O)Nc2ccc(Cl)c(Cl)c2)cc1,inconclusive: 3.46%,–
CC1(NC(=O)COc2ccccc2-c2ccccc2)CCS(=O)(=O)C1 (stereo unspecified),–,"inconclusive: 25.9 µM [falling, partial curve, poor fit]"
CC1=C([N+](=O)[O-])C(c2ccccc2Cl)NC(=O)N1C (stereo unspecified),inactive: -5.27%,–
CCOc1ccc2nc(N3C(=O)C(O)=C(C(=O)c4ccco4)C3c3ccco3)sc2c1 (stereo unspecified),inconclusive: 9.61%,–

# Record cards, as listed above. Order of values: activity change, negative = inhibition | Potency
# O=C(NCCN1CCOCC1)c1ccc(/C=C2\Sc3ccccc3N(Cc3ccc(F)cc3)C2=O)cc1 reads – | inconclusive: 15.8 µM [falling, partial curve]
# FC(F)(F)c1cc(CCN2C(=S)NC[C@@H]2Cc2ccccc2)cc(C(F)(F)F)c1 reads inconclusive: 11.6% | –
# COc1cccc(C(=O)CSc2nnnn2C)c1 reads – | inconclusive: 35.5 µM [falling, partial curve, poor fit]
# CCOc1ccc(C=NNc2ccc(S(=O)(=O)Nc3ccccc3C(=O)O)cc2[N+](=O)[O-])cc1 reads inconclusive: 0.0419% | –

# The list goes on.

SMILES,"activity change, negative = inhibition",Potency
COc1ccccc1COCC(O)CNCCc1ccc(C(F)(F)F)cc1 (stereo unspecified),–,"inconclusive: 15.8 µM [falling, partial curve, poor fit]"
O=C(/C=C/c1ccco1)Oc1ccc(C(=S)N2CCOCC2)cc1,inconclusive: 27.9%,–
CCc1ccc(NC(=O)c2cc(CC(C)C)on2)cc1,–,"inconclusive: 20.6 µM [rising, partial curve, poor fit]"
CCOc1ccc(OCc2cccc(C(=O)N3CCOCC3)c2)cc1,–,"inconclusive: 29.1 µM [rising, single point]"
CC(=O)Nc1ccc(OCCOc2ccc(/C=C3\C(=N)N4N=C(C)SC4=NC3=O)cc2)cc1,inconclusive: 2.78%,–
CC(C)COc1nc2c(c(=O)n(C)c(=O)n2C)n1C,inconclusive: 18.6%,–
COc1ccc(CCNC(=O)C(=O)c2cn(CC(=O)N3CCOCC3)c3ccccc23)cc1,–,"inconclusive: 14.1 µM [falling, partial curve]"
O=C(O)c1ccc(N/N=C/c2cccc3nccnc23)cc1,inconclusive: 210%,–
Cc1ccccc1NC(=O)c1cccc(S(=O)(=O)N2CCCCC2)c1,inconclusive: 4.27%,–
c1ccc(CN2CCN(CCN3CCn4c3nc3ccccc34)CC2)cc1,inactive: -2.73%,–
CC1CC(OCC(O)CN2CCOCC2)CC(C)(C)C1 (stereo unspecified),inconclusive: 8.56%,–
CCOC(=O)c1c(-c2ccc(C)s2)csc1N,inconclusive: 6.01%,–
S=C(c1ccc2c(c1)OCO2)N1CCCCC1,inconclusive: 19%,–
Cc1nc(N2CCN(S(=O)(=O)c3ccccc3C#N)CC2)c2c(-c3cccs3)csc2n1,inactive: 0.326%,–
COc1ccc(C(C(O)C(=O)c2c[nH]c3ccccc23)N2CCN(c3ccccc3)CC2)cc1 (stereo unspecified),–,"inconclusive: 18.4 µM [falling, single point]"
CCn1c(=O)c([N+](=O)[O-])c(NCc2ccc3c(c2)OCO3)c2ccccc21,–,"inconclusive: 10 µM [falling, partial curve]"
CCN(CC)CCCNC(=S)N1CCN(c2nc3ccccc3n2CC)CC1,inactive: 9.53%,–
COc1ccc(CC(=O)N/N=C(\C)c2cccnc2)cc1,inactive: -5.44%,–
Cc1ccc(S(=O)(=O)Nc2ccccc2C(=O)Nc2ccc(S(=O)(=O)Nc3nccc(C)n3)cc2)cc1,inactive: 6.94%,–
COc1cc2c3c(c1)C(C)CC(C)(C)N3C(=O)C2=O (stereo unspecified),–,"inconclusive: 12.6 µM [falling, partial curve]"
COc1ccc(/[N+]([O-])=C/c2ccoc2)cc1,inconclusive: 15.3%,–

SMILES,"activity change, negative = inhibition",Potency
O=C(c1ccccc1CCc1ccccc1)N1CCN(c2ccccn2)CC1,inactive: 5.86%,–
C/C(=N\NC(=S)NC(C)C)c1ccc(Cl)c([N+](=O)[O-])c1,–,"inconclusive: 15.8 µM [falling, single point]"
Cc1ccc(S(=O)(=O)Nc2cccc(-c3ccc(N4CCCCCC4)nn3)c2)cc1C,inconclusive: 15%,–
O=C(Nc1sc2c(c1C(=O)O)CCCCC2)c1ccccc1,inconclusive: 303%,–
CCC(Sc1nc2ccccc2c2nc(CCn3c(C)nc4ccccc43)nn12)C(=O)Nc1ccc(F)cc1 (stereo unspecified),inactive: 0.163%,–
C=CCn1c(SCC(N)=O)nc(C)cc1=O,inconclusive: 4.42%,–
Cc1cc(C)n(-c2ccc(C(=O)OCc3nnc(-c4ccccc4)o3)cc2)n1,inconclusive: -1.51%,–
CN(c1ccc(C(=O)NCCc2ccccc2)cc1)S(C)(=O)=O,inconclusive: 8.46%,–
O=C(c1ccc(Cl)cc1)c1cc([N+](=O)[O-])ccc1N1CCOCC1,–,"inconclusive: 11.2 µM [falling, partial curve]"
Cc1ccc(S(=O)(=O)N/N=C/c2c(F)cccc2Cl)cc1,inactive: 2.99%,–
CCOC(=O)c1cnc(-c2ccccc2)nc1-c1ccccc1,–,"inconclusive: 14.1 µM [rising, partial curve, poor fit]"
O=[N+]([O-])c1ccc2sc(SCc3nc4ccccn4c3Br)nc2c1,inconclusive: -27.5%,–
COc1ccc(C(=O)OCC(=O)Nc2ncc([N+](=O)[O-])s2)cc1OC,inconclusive: -10.6%,–
CNC(=S)N1CCN(c2ccccc2OC)CC1,inconclusive: 3.8%,–
COc1ccccc1OCC(=O)N/N=C/c1cccc2cccnc12,–,"inconclusive: 35.5 µM [falling, single point]"
COc1ccc(-c2nnn(CC(=O)N3CCN(c4ccc(F)cc4)CC3)n2)cc1,inactive: -1.62%,–
CCOCc1cn(CC(=O)c2ccc([N+](=O)[O-])cc2)c(C)nc1=N,inactive: 5.48%,–
O=C(COC(=O)C1=COCCO1)Nc1ncc(Cl)cc1Cl,inconclusive: 4.95%,–
S=C1CCC(c2ccc(Br)cc2)=NN1c1ccccc1,inconclusive: 10.3%,–
CCOC(=O)c1c(CSc2ccccc2)n(C)c2cc(Br)c(OC)c(O)c12,inconclusive: 3.02%,–
CC1CN(S(=O)(=O)c2cccc(C(=O)N=c3sccn3C)c2)CC(C)O1 (stereo unspecified),inactive: 2.75%,–

# Shown with tabs: two of the compounds above.
SMILES	activity change, negative = inhibition	Potency
Cc1cc(C)n(-c2ccc(C(=O)OCc3nnc(-c4ccccc4)o3)cc2)n1	inconclusive: -1.51%	–
CN(c1ccc(C(=O)NCCc2ccccc2)cc1)S(C)(=O)=O	inconclusive: 8.46%	–

# Further records

SMILES,"activity change, negative = inhibition",Potency
OC1(c2ccccc2F)CCN(Cc2nnnn2Cc2ccc(F)cc2)CC1,inactive: -8.29%,–
CC1(c2nnc(-c3ccc(F)cc3)o2)CC(c2ccc(Cl)cc2)=NO1 (stereo unspecified),inconclusive: 5.35%,–
Cc1cccc(CSc2nc(N)c(C#N)c(-c3cccs3)c2C#N)c1,inactive: 23.9%,–
Cn1cccc1C(=O)NCCc1ccc(Cl)cc1,inconclusive: -19.2%,–
O=S(=O)(c1c(F)cccc1F)N1CCN(C(=S)NCc2ccc3c(c2)OCO3)CC1,inconclusive: 4.91%,–
O=C(CN1C(=O)COc2ccccc21)NCCC1=CCCCC1,–,"inconclusive: 29.1 µM [falling, single point]"
Cn1c(=O)c2c(nc(CN3CCN(C(=O)c4ccco4)CC3)n2CCc2ccccc2)n(C)c1=O,inconclusive: 0.466%,–
O=C(NC(=S)Nc1ccccc1N1CCOCC1)c1cccc([N+](=O)[O-])c1,inconclusive: 15.1%,–
O=C1c2ccccc2C(=O)N1CCCc1cn(C[C@H]2CC[C@H](Cn3cc(CCCN4C(=O)c5ccccc5C4=O)nn3)O2)nn1,inconclusive: 2.47%,–
C=CCn1c(=O)[nH]c2cc(C(=O)N3CCN(c4ccc(C(C)=O)cc4)CC3)ccc2c1=O,–,"inconclusive: 13 µM [rising, partial curve, poor fit]"
Cc1ccc(SC(C)c2nc(-c3ccncc3)no2)cc1 (stereo unspecified),inconclusive: 12.4%,–
O=[N+]([O-])CC(c1ccc(F)cc1)c1c[nH]c2ccccc12 (stereo unspecified),inactive: -1.36%,–
COC(=O)CC(=O)CSc1nc2c(cc1C#N)CCCCC2,inconclusive: -1.75%,–
O=c1c2ccc(Cl)cc2nc2n1CC/C2=C\c1cccc(O)c1,–,"inconclusive: 3.98 µM [falling, full curve, poor fit]"
CCOC(=O)c1c(C)[nH]c(C)c1S(=O)(=O)N1CCC(C(=O)N2CCN(c3cccc(C)c3C)CC2)CC1,inactive: 4.29%,–
O=C(Nc1ccc(F)cc1)c1ccccc1NS(=O)(=O)N1CCCC1,inconclusive: -21.3%,–
COc1ccc(-c2cccc(NC(=O)c3cccs3)c2)nn1,inactive: -15.9%,–
COc1ccc(C2C(C(C)=O)=C(C)N=c3s/c(=C\c4cc(C)n(C)c4C)c(=O)n32)c(OC)c1 (stereo unspecified),inactive: -3.62%,–
